# PubChem BioAssay AID686943 – Drosophila RNAi Screening Center, 2013
# Screen: 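Fly genes whose loss alters ERK activation after insulin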 (primary screen)
# Cells: Drosophila S2R+ haemocyte-like cells expressing YFP-tagged ERK (Rolled)
# Reagents: long dsRNA against Drosophila genes
# Conditions: insulin stimulation versus unstimulated cells; dose and duration not given
# Read-out: 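Per-plate z-scores of phospho-ERK immunostaining normalised to YFP-tagged ERK, measured with and without insulin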
# Scale: replicate 1, z-score of dpERK with insulin and replicate 2, z-score of dpERK with insulin: higher = more active ERK per ERK-YFP after insulin
# The deposit covers about 23,000 reagents; shown is a random part of those with a known target gene and a result. 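Extra replicates exist only for a retested subset of genes; insulin dose and duration not given; both raised and lowered dpERK matter.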 A plus sign joins genes that one reagent is predicted to hit. Further read-outs or replicates are left out here. The record does not give: the amount of reagent, the time to read-out.
The opening 3 entries, ahead of the listing:
Target gene,DRSC id,"replicate 1, z-score of dpERK with insulin","replicate 2, z-score of dpERK with insulin"
CG17177,DRSC10257,1.79,-1.05
CG2901,DRSC18239,-0.48,0.35
Ku80,DRSC02699,0.7,0.31

The list itself, repeating the preview:
Target gene,DRSC id,"replicate 1, z-score of dpERK with insulin","replicate 2, z-score of dpERK with insulin"
CG17177,DRSC10257,1.79,-1.05
CG2901,DRSC18239,-0.48,0.35
Ku80,DRSC02699,0.7,0.31
Nepl3,DRSC02681,0,-0.72
CG17572,DRSC02629,-0.21,1.16
Tsp42Ea,DRSC04982,0.25,-0.15
Tsp42Ea,DRSC06792,1.34,-0.41
CG10029,DRSC12498,2.6,0.44
Acox57D-d,DRSC04561,1.31,0.82
CG7772,DRSC20056,0.04,0.82
ca,DRSC15305,-1.12,-0.12
ca,DRSC15306,0.16,0.28
ca,DRSC16314,-0.66,0.32
CG14839,DRSC14963,1.08,-0.53
CG7091,DRSC12944,-0.97,-0.15
CG7091,DRSC16197,-0.36,1.22
ppk11,DRSC02737,0.4,0.17
Obsc,DRSC04301,0.09,-0.46
Obsc,DRSC04302,0.07,-0.13
Obsc,DRSC04303,0.91,0.62
Obsc,DRSC04430,0.06,-0.42
Obsc,DRSC22422,0.64,0.3
koko + Vti1b,DRSC16283,1.56,-0.47
koko + Vti1b,DRSC16284,0.87,0.29
CG10477,DRSC09732,-0.16,-1.08
Plzf,DRSC02994,1.54,0.62
GlcAT-I,DRSC17307,0.33,-0.4
CG17839,DRSC10290,0.05,0.23
CG17839,DRSC10291,-1.46,-0.5
PGS1,DRSC16304,0.75,0
CG33792,DRSC05355,0.58,0.18
Drat,DRSC06600,-1.16,-1.4
CG11159,DRSC06050,0.67,-0.1
CG32812,DRSC18478,-0.26,1.2
Prosbeta1,DRSC07159,-1.55,-2.7
St2,DRSC15142,1.37,0.92
St2,DRSC22624,0.03,0.35
CG4970,DRSC02796,0.2,-0.11
Larp4B,DRSC08192,-0.66,-2.49
CG12025,DRSC08230,0.31,0.79
Gpo1,DRSC07128,0.56,0.22
Taf10b + Taf10,DRSC00793,0.54,1.98
glob1,DRSC16959,0.59,0.64
CNT1,DRSC06082,0.27,0.59
Rnmt,DRSC03558,0.57,0.74
CG12279,DRSC14495,-1.07,0.05
Tret1-2,DRSC07117,-0.32,0.17
Esp,DRSC16664,0.6,0
mRpL11,DRSC15482,-0.52,0.78
CG8312,DRSC16406,1.14,0.24
CG33090,DRSC01908,0,0.16
Usp1,DRSC14155,-0.32,-0.58
Art6,DRSC16583,-0.21,-0.75
Eglp1,DRSC04502,0.43,0.19
CG13559,DRSC04197,-0.1,-0.13
retm,DRSC03252,-0.03,-0.14
Invadolysin,DRSC15527,0.19,0.29
CG34324,DRSC19502,-0.97,-0.19
Gprk1,DRSC20732,0.29,0.12
Gprk1,DRSC20916,-0.48,0.91
CG30275,DRSC04163,0.36,0.41
Takl2,DRSC15650,0.44,-0.26
CG31097,DRSC14666,1.34,0.04
CG11836,DRSC14396,0.33,0.51
Rim2,DRSC00073,0.98,-0.22
Rim2,DRSC00520,-0.36,-1.13
Rim2,DRSC22699,0.16,0.33
CR43670 + grp + CR43671 + 1 more,DRSC03541,0.33,0.38
CG16799,DRSC06626,0.7,-0.02
CG16799,DRSC21553,-1.24,0.08
sws,DRSC18843,0.9,-0.28
CG13016,DRSC06271,-0.67,-0.53
GstD1,DRSC16683,1.16,-0.15
